Test results from patent US7235577B1 (priority 2000, dated 2007).

Target: Jurkat-CRAC
Assay: Selectivity patch clamp, Jurkat CRAC channels
Assay type: cell-based, human
Conditions: monovalent currents with Na+ as charge carrier
Experimental: L929 cells stably expressing mKv1.1, rKv1.2, mKv1.3, and mKv3.1 and MEL cells stably expressing hKv1.5 have been previously described (Grissmer 1994, Mol. Pharmacol. 45: 1227). hKv1.4 and rKv4.2 were stably expressed in LTK (HK1–7). Channel expression was induced 8–12 h before the electrophysiological experiments by 4 μM dexamethasone (Sigma). HEK-293 cells stably expressing the skeletal muscle sodium channel hSkM1 (SCN4A) were generated in the laboratory of Dr. F. Lehmann-Horn. HEK-293 cells stably expressing hSloα were obtained from Dr. Andrew Tinker (Center for Clinical Pharmacology, University College London). L929, MEL, LTK and HEK cells were maintained in DMEM containing 10% heat-inactivated fetal calf serum (Summit Biotechnology, Fort Collins, Colo.) and 250 μg/ml G418 (Life Technologies, Inc.). Rat basophilic leukemia (RBL) cells were maintained in Eagle's minimum essential medium with 2 mM L-glutamine and 10% fetal calf serum. CHO cell were maintained in F12K media (ATCC). Human leukemic Jurkat E6–1 cells were cultured in RPMI 1640 supplemented with 10% fetal calf serum and 1 mM L-glutamine. T84 cells were maintained in a 1:1 mixture of Ham's F12 medium and DMEM with 2.5 mM L-glutamine and 10% fetal calf serum.
Recordings from the Jurkat SKCa channel were made in K^+ aspartate Ringer (Na^+ was replaced by K^+) with the same internal pipette solution. […]

Clc1ccccc1C(c1ccccc1)(c1ccccc1)n1ccnc1 [Clotrimazole, reference compound]
Block of Jurkat-CRAC (Ca): no effect at 10 μM (n =
